These results are taken from PubChem BioAssay AID1487 (National Center for Advancing Translational Sciences (NCATS), 2009).

The nature of the test: qHTS Assay for Modulators of Lamin A Splicing. Conditions: HeLa LMNA splicing GFP/RFP minigene ratio, 48 h. In short, it runs like this: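 Read-out is the ratio of GFP to DsRed2 object intensity, acquired by 488 nm laser-scanning cytometry on HeLa lamin A-EGFP minigene reporter cells. Compound incubation 48 hrs at 37 °C in Opti-MEM with 2% FBS; DMSO 0.5% final.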
[1] abbreviates: measured here: RFP viability control channel.
The mark [2] stands for this setting: measured here: GFP splicing reporter channel.

The list shows a part of the results. These are further read-outs of the screen, such as a control signal, another cell line or another target. No call is given for them. Compounds called inactive in the main read-out are mostly missing here. Words in brackets tell the shape of the fitted curve; partial curves, single points and poor fits give uncertain potencies.

For the compound `CCOC(=O)c1c(NC(=O)CN2C(=O)NC(C)(c3ccc(OC(F)F)cc3)C2=O)sc(C)c1C` (configuration not stated), the concentration at half-maximal activity (AC50) under setting [1] was 12.6 µM [rising, partial curve].

As for `CCOC(=O)CSc1nc2sc(C)c(C)c2c(=O)n1N`, the AC50 under setting [2] was 22.4 µM [rising, single point].

As to `CC(C)NC(=O)c1ccc(-n2c(=S)[nH]c3ccccc3c2=O)cc1`, under setting [2], the half-maximal activity concentration (AC50) was 0.00708 µM [falling, full curve, poor fit].

For the compound `O=[N+]([O-])c1nn(-c2ccc3c(c2)OCCO3)n(O)c1=Nc1ccccc1`, the AC50 under setting [1] was 20 µM [rising, single point].

Consider `Cc1cc2nc(-c3cccnc3SCC(=O)NCc3ccco3)[nH]c2cc1C`, for which the AC50 reads like this: under setting [2], 11.2 µM [rising, partial curve]; under setting [1], 3.98 µM [rising, full curve, poor fit].

Regarding `NC(=O)c1ccc(NC(=O)COC(=O)c2c3c(nc4ccccc24)/C(=C\c2ccc4c(c2)OCO4)CCC3)cc1`, the AC50 under setting [2] is 35.5 µM [falling, single point] and the concentration at half-maximal activity (AC50) under setting [1] was 35.5 µM [falling, single point].

With `Cc1ccc(S(=O)(=O)n2nc(C)c(C#N)c2N)cc1`, under setting [1], the half-maximal activity concentration (AC50) is 2.82 µM [rising, full curve].

`Cc1cc2c(cc1C)NC(c1ccccn1)C1=C(CC(C)(C)CC1=O)N2` (configuration not stated): the AC50 under setting [2] is 0.282 µM [rising, partial curve].

On to `CC(C)(C)C1C=C(Sc2ccccc2)C(=O)O1` (configuration not stated), for which the AC50 runs as follows: under setting [2], 12.6 µM [falling, partial curve]; under setting [1], 8.91 µM [falling, partial curve].

As to `O=c1c(-c2ccccc2)nc2cnc(Nc3ccccc3)nc2n1C[C@H]1CCCO1`, the AC50 is, setting by setting: under setting [2], 11.2 µM [falling, partial curve, poor fit]; under setting [1], 10 µM [falling, partial curve, poor fit].

With `COc1ccc(Cl)cc1NC(=O)N(C)CCc1c(C)nn(C)c1C`, the AC50 under setting [1] was 0.0562 µM [falling, full curve, poor fit].

Regarding `Cc1cccc(NC2=C/C(=N/S(=O)(=O)c3cccs3)c3ccccc3C2=O)c1`, the AC50 under setting [2] is 0.126 µM [falling, full curve, poor fit] and the AC50 under setting [1] was 5.62 µM [falling, partial curve].

In the case of `Cn1c(SCc2nc(-c3ccc(Cl)cc3)no2)nnc1-c1ccco1`, the concentration at half-maximal activity (AC50) under setting [1] is 20 µM [rising, single point].

`Fc1ccc(Sc2ccccc2CNC2=NCCN2)cc1`: the AC50 is, setting by setting: under setting [2], 11.2 µM [rising, single point]; under setting [1], 15.8 µM [rising, single point].

In the case of `Cn1c(CNC(=O)Nc2cccc(Cl)c2)nnc1SCc1ccccc1`, the AC50 was 15.8 µM [rising, single point] under setting [2] and 15.8 µM [rising, single point] under setting [1].

For `CC(=O)CCC(=O)O`, the AC50 under setting [2] was 7.08 µM [falling, full curve, poor fit] and the AC50 under setting [1] was 11.2 µM [falling, partial curve, poor fit].

For `CC(C)CNC(=S)N1CCC(c2nc(-c3ccc(F)cc3)no2)CC1`, the AC50 under setting [2] is 15.8 µM [falling, single point].

With `Cc1nc(Oc2ccc(S(=O)(=O)N3CCOCC3)cc2Cl)c2c3c(sc2n1)CCCC3`, the AC50 by setting is: under setting [2], 35.5 µM [rising, single point]; under setting [1], 35.5 µM [rising, single point].

In the case of `CC(=O)N(CN1C(=O)c2ccc([N+](=O)[O-])cc2C1=O)c1cccc(C(=O)O)c1`, the AC50 under setting [2] is 0.00501 µM [rising, full curve, poor fit].

In the case of `CCn1c2c(c3cc(Cl)ccc31)CCCC2=O`, under setting [1], the AC50 was 17.8 µM [rising, single point].

As to `CC(=O)c1ccc(NC(=O)c2cc(C)nc3c2c(C)nn3-c2ccc(C)cc2)cc1`, the half-maximal activity concentration (AC50) under setting [2] was 0.282 µM [falling, full curve, poor fit].

Turning to `COc1ccc(-c2nc3c(c4c2C[C@H](c2ccccc2)OC4)CN(S(=O)(=O)c2ccc(C)cc2)CC3)c(C)c1`, the AC50 under setting [1] is 5.62 µM [rising, single point].

In the case of `COc1ccc(-c2nnn(CC(=O)N(CCCN3CCOCC3)C(C(=O)NC3CCCC3)c3ccco3)n2)cc1` (configuration not stated), under setting [2], the AC50 was 0.0562 µM [rising, full curve, poor fit].

On to `COc1cccc(-n2c(SCC(N)=O)nc3c([nH]c4ccccc43)c2=O)c1`, for which, under setting [1], the AC50 is 15.8 µM [rising, single point].

As to `COC(=O)c1cn(C)c2ccc(S(=O)(=O)N3CCCCC3)cc2c1=O`, the AC50 under setting [1] was 7.94 µM [falling, partial curve].

Consider `O=C(OCc1ccccc1)c1ccc(O)cc1`, for which the AC50 runs as follows: under setting [2], 0.00316 µM [falling, full curve, poor fit]; under setting [1], 14.1 µM [falling, single point].

Consider `CCN(CC)c1ccc(C(=O)NC(=S)N2CCN(Cc3ccc4c(c3)OCO4)CC2)cc1`, for which the AC50 under setting [1] was 20 µM [rising, single point].

Consider `CCOc1ccc(S(=O)(=O)N2c3ccccc3CC2C)cc1` (configuration not stated), for which, under setting [2], the concentration at half-maximal activity (AC50) was 10 µM [rising, single point].

Take `O=C(NCCCCCc1nc2ccccc2[nH]1)c1ccccc1Cl`: the AC50 by setting is: under setting [2], 0.631 µM [falling, partial curve, poor fit]; under setting [1], 3.16 µM [falling, partial curve, poor fit].

As for `CC(C)(C)C(=O)OCOC(=O)[C@@H]1N2C(=O)[C@@H](NC(=O)[C@H](N)c3ccccc3)[C@H]2SC1(C)C`, the concentration at half-maximal activity (AC50) reads like this: under setting [2], 0.251 µM [falling, full curve, poor fit]; under setting [1], 0.000355 µM [rising, full curve, poor fit].

On to `COc1ccc(CCNC(=O)Cn2nc(C(=O)O)c3ccccc3c2=O)cc1OC`, for which the AC50 runs as follows: under setting [2], 35.5 µM [falling, single point]; under setting [1], 35.5 µM [falling, single point].

Take `CC(=O)Nc1nonc1-c1nnc(SCc2ccccc2F)n1C`: under setting [2], the AC50 is 12.6 µM [rising, single point].

As to `Cc1cc(Cl)ccc1OCCCC(=O)Nc1cccnc1`, the AC50 under setting [1] is 15.8 µM [rising, single point].

With `CC(=O)c1ccc(N2CCN(c3ncnc4c3c(-c3ccccc3)cn4-c3ccc(Cl)cc3)CC2)cc1`, the concentration at half-maximal activity (AC50) under setting [2] is 15.8 µM [falling, partial curve, poor fit].
